Some entries share one result that the patent states for a list of compounds.
Tested on: ME 275 melanoma cell line
Test: Phototoxicity after irradiation at 652 nm, MTT test, ME 275 melanoma cell line
Assay type: cell-based, human
Conditions: ME 275 cells, 10 μM, 5-30 J/cm^2

| Substance | phototoxicity versus light dose |
| --- | --- |
| [OS4(η^6-p-Pr^iC6H4Me)4(TPP)Cl8] [Compound 6] | Similarly significant results |
| [Rh4(η^5-Cp*)4(TPP)Cl8] [Compound 7] | Similarly significant results |
| [Ru4(η^6-1,4-C6H4(COOEt)2)4(TPP)Cl8] [Compound 5] | Similarly significant results |
| [Ru4(η^6-C6H5CH3)4(TPP)Cl8] [Compound 2] | Similarly significant results |
| [Ru4(η^6-C6H6)4(TPP)Cl8] [Compound 1] | Similarly significant results |
| [Ru4(η^6-C6Me6)4(TPP)Cl8] [Compound 4] | Similarly significant results |
| [Ru4(η^6-p-Pr^iC6H4Me)4(TPP)Cl8] [Compound 3] | Similarly significant results |
